Test results from publication PMC7140707.

T1: His6-Gis1 (yeast (S. cerevisiae)) (UniProt Q03833)
T1 sequence: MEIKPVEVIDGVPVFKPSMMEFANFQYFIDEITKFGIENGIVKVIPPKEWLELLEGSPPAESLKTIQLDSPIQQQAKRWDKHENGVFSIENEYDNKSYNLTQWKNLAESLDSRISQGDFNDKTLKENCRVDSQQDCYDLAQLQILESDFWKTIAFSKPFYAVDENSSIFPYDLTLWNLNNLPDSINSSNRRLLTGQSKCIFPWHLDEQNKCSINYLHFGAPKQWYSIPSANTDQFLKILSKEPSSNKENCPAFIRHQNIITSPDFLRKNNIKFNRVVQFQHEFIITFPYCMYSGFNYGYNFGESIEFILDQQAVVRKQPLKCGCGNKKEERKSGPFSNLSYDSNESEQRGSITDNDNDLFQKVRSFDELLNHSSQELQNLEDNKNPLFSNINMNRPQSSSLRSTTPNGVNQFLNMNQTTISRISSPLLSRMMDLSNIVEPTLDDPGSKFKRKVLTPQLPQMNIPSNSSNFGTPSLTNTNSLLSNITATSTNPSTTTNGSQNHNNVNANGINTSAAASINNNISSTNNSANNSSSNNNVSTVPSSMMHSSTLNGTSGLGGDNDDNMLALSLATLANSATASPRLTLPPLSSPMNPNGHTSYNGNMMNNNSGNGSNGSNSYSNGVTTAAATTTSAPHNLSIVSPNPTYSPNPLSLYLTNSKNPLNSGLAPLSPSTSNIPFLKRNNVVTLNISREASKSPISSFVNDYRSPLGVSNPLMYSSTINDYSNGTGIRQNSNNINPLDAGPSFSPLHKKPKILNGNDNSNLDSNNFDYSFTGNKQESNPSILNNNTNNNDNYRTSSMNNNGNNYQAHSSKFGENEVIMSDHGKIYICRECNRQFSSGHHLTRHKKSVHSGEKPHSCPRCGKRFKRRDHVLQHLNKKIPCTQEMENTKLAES

B1: BUD5 (protein, UniProt P25300 1-642)
chain: MSPKNKYVYICVEYIYIYFAKIHKQSTLSSDTTKMFVLIDNVLAYLLEQDDLFVTARFAIQGQIVSRRVNKIHISNITDVLLQQFISHTLPYNDNIVPKKILDSMRTAVRQLLEATACVSRECPLVKRSQDIKRARKRLLSDWYRLGADANMDAVLLVVNSAWRFLAVWRPFVNSIQHATQELYQNIAHYLLHGNVNIQRVTALIQLVMGQDDLLFSMDDVLQEVFRIQLYLNKMLPHNSHKWQKPSPFDSANLLLNFRDWTTDNALLQELLLSYPTINKNKHKNHSVPRLIQIWVESYWQDSETTLKDILNFWYSHLAEYYEYQELFADIVQLFINKKRTRQLKIHYIGLTDKEIEENKPPLDYENLFLQYEIDKTNANDELCGATDLSDLLFQWKQGELLEVEAFALNVSPWSLAKTLTLLESSLYLDIETIEFTRHFKHNDTTIDSVFTLSNQLSSYVLETTLQQTHTISYWLQVALSCLYLRNLNSLASIITSLQNHSIERLSLPIDVKSDHLFQRLKVVVHPNNNYNVYRRTIKHIFHSQLPCVPFTSLLIRDITFIRDGNDTFTKDGNNVNMQKFNQITKIVAFAQYLQQKQYEDIHCSNTTARSLLGAMIKVHTLYNDNKDRAYQVSIAKVPRLT
B2: COA6 (protein, UniProt Q3E846 1-104)
chain: MGLFSFDGGKKESQPPNTRSQRKLCWESRDAFFQCLDKADILDAMDPKNSKSIKSHCKVENEKFEENCAHSWIKYFKEKRVIDFKREQTIKRIEQEAKQRERNQ
B3: CPA1 (protein, UniProt P07258 1-411)
chain: MSSAATKATFCIQNGPSFEGISFGANKSVAGETVFTTSLVGYPESMTDPSYRGQILVFTQPLIGNYGVPSGEARDEYNLLKYFESPHIHVVGIVVAEYAYQYSHWTAVESLAQWCQREGVAAITGVDTRELVQYLREQGSSLGRITLADHDPVPYVNPMKTNLVAQVTTKKPFHVSALPGKAKANVALIDCGVKENIIRCLVKRGANVTVFPYDYRIQDVASEFDGIFLSNGPGNPELCQATISNVRELLNNPVYDCIPIFGICLGHQLLALASGASTHKLKYGNRAHNIPAMDLTTGQCHITSQNHGYAVDPETLPKDQWKPYFVNLNDKSNEGMIHLQRPIFSTQFHPEAKGGPLDTAILFDKFFDNIEKYQLQSQAKSSISLKVTYSTDKSRLQSINVTKLAKERVLF
B4: HEM15 (protein, UniProt P16622 32-393)
chain: NAQKRSPTGIVLMNMGGPSKVEETYDFLYQLFADNDLIPISAKYQKTIAKYIAKFRTPKIEKQYREIGGGSPIRKWSEYQATEVCKILDKTCPETAPHKPYVAFRYAKPLTAETYKQMLKDGVKKAVAFSQYPHFSYSTTGSSINELWRQIKALDSERSISWSVIDRWPTNEGLIKAFSENITKKLQEFPQPVRDKVVLLFSAHSLPMDVVNTGDAYPAEVAATVYNIMQKLKFKNPYRLVWQSQVGPKPWLGAQTAEIAEFLGPKVDGLMFIPIAFTSDHIETLHEIDLGVIGESEYKDKFKRCESLNGNQTFIEGMADLVKSHLQSNQLYSNQLPLDFALGKSNDPVKDLSLVFGNHEST
B5: BOI1 (protein, UniProt P38041 1-980)
chain: MSLEGNTLGKGAKSFPLYIAVNQYSKRMEDELNMKPGDKIKVITDDGEYNDGWYYGRNLRTKEEGLYPAVFTKRIAIEKPENLHKSPTQESGNSGVKYGNLNDSASNIGKVSSHQQENRYTSLKSTMSDIDKALEELRSGSVEQEVSKSPTRVPEVSTPQLQDEQTLIQEKTRNEENTTHDSLFSSTADLNLSSESLKNISKSNISTKSLEPSSESVRQLDLKMAKSWSPEEVTDYFSLVGFDQSTCNKFKEHQVSGKILLELELEHLKELEINSFGIRFQIFKEIRNIKSAIDSSSNKLDADYSTFAFENQAAQLMPAATVNRDEIQQQISSKCNKLSSESSDRKSSSVTTELQRPSSVVVNPNFKLHDPAEQILDMTEVPNLFADKDIFESPGRAPKPPSYPSPVQPPQSPSFNNRYTNNNARFPPQTTYPPKNKNPTVYSNGLIPNSSTSSDNSTGKFKFPAMNGHDSNSRKTTLTSATIPSINTVNTDESLPAISNISSNATSHHPNRNSVVYNNHKRTESGSSFVDLFNRISMLSPVKSSFDEEETKQPSKASRAVFDSARRKSSYGHSRDASLSEMKKHRRNSSILSFFSSKSQSNPTSPTKQTFTIDPAKMTSHSRSQSNSYSHARSQSYSHSRKHSLVTSPLKTSLSPINSKSNIALAHSETPTSSNNKEAVSQPSEGKHKHKHKHKSKHKHKNSSSKDGSSEEKSKKKLFSSTKESFVGSKEFKRSPSELTQKSTKSILPRSNAKKQQTSAFTEGIRSITAKESMQTADCSGWMSKKGTGAMGTWKQRFFTLHGTRLSYFTNTNDEKERGLIDITAHRVLPASDDDRLISLYAASLGKGKYCFKLVPPQPGSKKGLTFTEPRVHYFAVENKSEMKAWLSAIIKATIDIDTSVPVISSYATPTIPLSKAQTLLEEARLQTQLRDAEEEEGRDQFGWDDTQNKRNSNYPIEQDQFETSDYLESSAFEYPGGRL
B6: ERV41 (protein, UniProt Q04651 1-352)
chain: MAGLKTFDAFPKTEEQYKKKSTKGGLTSLLTYLFLLFIAWTEFGEYFGGYIDQQYVVDSQVRDTVQINMDIYVNTKCDWLQINVRDQTMDRKLVLEELQLEEMPFFIPYDTKVNDINEIITPELDEILGEAIPAEFREKLDTRSFFDESDPNKAHLPEFNGCHVFGSIPVNRVSGELQITAKSLGYVASRKAPLEELKFNHVINEFSFGDFYPYIDNPLDNTAQFNQDEPLTTYVYYTSVVPTLFKKLGAEVDTNQYSVNDYRYLYKDVAAKGDKMPGIFFKYNFEPLSIVVSDVRLSFIQFLVRLVAICSFLVYCASWIFTLLDMALITIMGPKWSLRYQPDDKTKGILDR
B7: GIS2 (protein, UniProt P53849 1-153)
chain: MSQKACYVCGKIGHLAEDCDSERLCYNCNKPGHVQTDCTMPRTVEFKQCYNCGETGHVRSECTVQRCFNCNQTGHISRECPEPKKTSRFSKVSCYKCGGPNHMAKDCMKEDGISGLKCYTCGQAGHMSRDCQNDRLCYNCNETGHISKDCPKA
B8: AYR1 (protein, UniProt P40471 1-297)
chain: MSELQSQPKKIAVVTGASGGIGYEVTKELARNGYLVYACARRLEPMAQLAIQFGNDSIKPYKLDISKPEEIVTFSGFLRANLPDGKLDLLYNNAGQSCTFPALDATDAAVEQCFKVNVFGHINMCRELSEFLIKAKGTIVFTGSLAGVVSFPFGSIYSASKAAIHQYARGLHLEMKPFNVRVINAITGGVATDIADKRPLPETSIYNFPEGREAFNSRKTMAKDNKPMPADAYAKQLVKDILSTSDPVDVYRGTFANIMRFVMIFVPYWLLEKGLSKKFKLDKVNNALKSKQKNKDD
B9: ERG26 (protein, UniProt P53199 1-349)
chain: MSKIDSVLIIGGSGFLGLHLIQQFFDINPKPDIHIFDVRDLPEKLSKQFTFNVDDIKFHKGDLTSPDDMENAINESKANVVVHCASPMHGQNPDIYDIVNVKGTRNVIDMCKKCGVNILVYTSSAGVIFNGQDVHNADETWPIPEVPMDAYNETKAIAEDMVLKANDPSSDFYTVALRPAGIFGPGDRQLVPGLRQVAKLGQSKFQIGDNNNLFDWTYAGNVADAHVLAAQKLLDPKTRTAVSGETFFITNDTPTYFWALARTVWKADGHIDKHVIVLKRPVAICAGYLSEWVSKMLGKEPGLTPFRVKIVCAYRYHNIAKAKKLLGYTPRVGIEEGINKTLAWMDEGL
B10: BRE2 (protein, UniProt P43132 1-505)
chain: MKLGIIPYQEGTDIVYKNALQGQQEGKRPNLPQMEATHQIKSSVQGTSYEFVRTEDIPLNRRHFVYRPCSANPFFTILGYGCTEYPFDHSGMSVMDRSEGLSISRDGNDLVSVPDQYGWRTARSDVCIKEGMTYWEVEVIRGGNKKFADGVNNKENADDSVDEVQSGIYEKMHKQVNDTPHLRFGVCRREASLEAPVGFDVYGYGIRDISLESIHEGKLNCVLENGSPLKEGDKIGFLLSLPSIHTQIKQAKEFTKRRIFALNSHMDTMNEPWREDAENGPSRKKLKQETTNKEFQRALLEDIEYNDVVRDQIAIRYKNQLFFEATDYVKTTKPEYYSSDKRERQDYYQLEDSYLAIFQNGKYLGKAFENLKPLLPPFSELQYNEKFYLGYWQHGEARDESNDKNTTSAKKKKQQQKKKKGLILRNKYVNNNKLGYYPTISCFNGGTARIISEEDKLEYLDQIRSAYCVDGNSKVNTLDTLYKEQIAEDIVWDIIDELEQIALQQ
B11: GVP36 (protein, UniProt P40531 1-326)
chain: MSFNAFASSLSKKLQEISTSVSEKTQELPSLAQSTQRMVQERLGQVTDISQLPREYTELEDKVDTIKLIYNHFLGVTAIYENGSYDYPKYINESVNEFSRSVASKLTELTHATSASEAQNILVAPGPIKEPKTLNYALSKVALNSSECLNKMFPTEEQPLASALLQFSDVQAKIAQARIQQDTLIQTKFNKNLRERLSFEIGKADKCRKDVHSMRLRYDVARTNLANNKKPEKEASLRVQMETLEDQFAQVTEDATVCLQEVISHANFSEDLKELAKAQAEYFETSAGLMKEFLSNSFAEEPEAKPEVAEEEKPQTAISMNDEDDA

target: T1, His6-Gis1 (yeast (S. cerevisiae)); assay: affinity purification with mass spectrometry; His6-Gis1 pre-bound to a Ni Sepharose 6 Fast Flow column; crude yeast extract (Δgis1 cells grown in air or under hypoxia, Δgis1Δhem1 cells at intermediate or high ALA) loaded, 4 °C, 2 h; eluted complexes separated by SDS-PAGE, bands excised, MS; only the target purified

Row | binding | Binder
1 | binds | B1
2 | binds | B2
3 | binds | B3
4 | binds | B4
5 | binds | B5
6 | binds | B6
7 | binds | B7
8 | binds | B8
9 | binds | B9
10 | binds | B10
11 | binds | B11

Results are given in words; binding and its absence hold for the method and conditions named. In cells and extracts the contact can be indirect. Here binding means that the protein was enriched with, or labelled near, the bait; the list need not be complete. Sequences can lack the tags named with a protein.
